The test addresses 14-3-3 ζ, endogenous in LNCaP cells (human (endogenous in LNCaP)) (UniProt P63104). The test can be described thus: affinity purification with mass spectrometry; RIME (rapid immunoprecipitation mass spectrometry of endogenous proteins on chromatin) on AR and on 14-3-3 ζ in PIM1 over-expressing LNCaP cells; immunoprecipitation as for ChIP-seq, on-bead trypsin/Lys-C digestion, LC-MS; 3 replicates, relative to IgG.

Chains of the proteins cited; added tags and fusions are not shown.
UniProt P63104: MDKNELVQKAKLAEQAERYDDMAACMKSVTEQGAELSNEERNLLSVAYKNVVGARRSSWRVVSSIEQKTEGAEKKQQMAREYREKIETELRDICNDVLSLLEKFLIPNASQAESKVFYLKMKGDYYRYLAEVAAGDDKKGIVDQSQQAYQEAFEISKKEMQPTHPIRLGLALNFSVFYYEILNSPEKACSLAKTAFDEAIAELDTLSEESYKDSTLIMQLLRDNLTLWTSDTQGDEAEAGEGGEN
UniProt Q13263: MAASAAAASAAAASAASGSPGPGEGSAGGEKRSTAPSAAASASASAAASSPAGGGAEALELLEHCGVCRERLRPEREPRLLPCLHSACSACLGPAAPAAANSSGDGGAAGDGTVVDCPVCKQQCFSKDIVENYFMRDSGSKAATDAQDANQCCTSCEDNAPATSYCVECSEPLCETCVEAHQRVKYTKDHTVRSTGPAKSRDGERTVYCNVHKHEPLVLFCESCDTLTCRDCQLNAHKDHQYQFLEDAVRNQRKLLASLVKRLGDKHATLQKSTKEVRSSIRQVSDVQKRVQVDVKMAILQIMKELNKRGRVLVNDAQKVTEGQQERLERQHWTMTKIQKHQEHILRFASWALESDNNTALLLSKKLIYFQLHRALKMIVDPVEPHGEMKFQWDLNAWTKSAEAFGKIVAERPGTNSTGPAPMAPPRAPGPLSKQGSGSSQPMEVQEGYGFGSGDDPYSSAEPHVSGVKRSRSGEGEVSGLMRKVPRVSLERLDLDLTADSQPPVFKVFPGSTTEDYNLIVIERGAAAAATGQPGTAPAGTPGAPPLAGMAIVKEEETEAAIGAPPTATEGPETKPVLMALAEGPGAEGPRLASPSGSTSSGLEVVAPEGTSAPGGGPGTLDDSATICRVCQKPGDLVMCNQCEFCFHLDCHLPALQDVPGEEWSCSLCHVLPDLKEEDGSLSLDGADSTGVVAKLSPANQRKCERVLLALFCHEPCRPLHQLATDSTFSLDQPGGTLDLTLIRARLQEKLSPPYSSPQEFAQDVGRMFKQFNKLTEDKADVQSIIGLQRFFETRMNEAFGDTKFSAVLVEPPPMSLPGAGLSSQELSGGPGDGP

These results are taken from publication PMC8546101.

Results are given in words; binding and its absence hold for the method and conditions named. In cells and extracts the contact can be indirect. A yes stands for co-enrichment or nearness to the bait. Other partners may have been found.

As for hnRNPK (from UniProt P61978 1-463), the binding entry is “binds”.

Regarding TRIM28 (from UniProt Q13263 1-835), the binding entry was “binds”.
